Laboratory results published in article PMC6983514, “Investigating the clinical factors and comedications associated with circulating levels of atorvastatin and its major metabolites in secondary prevention” (British Journal of Clinical Pharmacology, 2020).

What was measured:
[1] = Main analysis: all subsets multivariable linear regression with BIC model averaging of clinical factors/comedications on ATV analyte levels, ratios and sum total; format: in vivo, human; conditions: log10 transformed plasma concentration, model averaged coefficient
Method: The following 8 endpoints were considered: individual concentrations of ATV and its 3 metabolites, specific analyte ratios (hydroxylation—2‐OH ATV/ATV, 2‐OH ATV L/ATV L; lactonization—ATV L/ATV), and the analyte sum total (ATV + 2‐OH ATV + ATV L + 2‐OH ATV L). […]
Prior to modelling, all endpoints were log10 transformed to normalise the distribution of (observed) residuals and optimise homoscedasticity. Clinical covariate multicollinearity was assessed using the variance inflation factor, which was <1.5 for all covariates, indicating negligible multicollinearity.
Multivariable linear regression was used for covariate selection, as has been done previously with sparse ATV sampling.18 For a given endpoint, first the maximum multivariable linear regression model (containing all 20 covariates) was constructed. […] The utility of the final produced model for describing the observed variation in the endpoint was assessed using the unadjusted R^2 value. […]

[2] = test system: breast cancer resistance protein (BCRP, encoded by ABCG2); conditions: cited from earlier work

SMILES	B (SE), Sex (F vs M) on analyte level [1]	B (SE), CYP3A inhibitor on analyte level ([1]; moderate/strong CYP3A inhibitor)	inhibition of BCRP in vitro [2]
CC(C)c1c(C(=O)Nc2ccccc2)c(-c2ccccc2)c(-c2ccc(F)cc2)n1CC[C@@H](O)C[C@@H](O)CC(=O)O [ATV, atorvastatin]	−0.123 (0.034)	0.166 (0.076)	
NS(=O)(=O)c1cc(C(=O)O)c(NCc2ccco2)cc1Cl [furosemide]			inhibit
